The target in test [1] is MFAP4_(C34S) (human) (UniProt P55083). Kind of test: condition: only SDS gel under reducing conditions (50 mM DTT); SDS-PAGE; reducing (50 mM DTT), 10% gel, Coomassie stain; both purified.
For test [2] the target is unchanged. Nature of the test: dynamic light scattering; denaturing and reducing: 1% SDS in TBS with 50 mM DTT; both purified.
Test [3] has the same target. Kind of test: dynamic light scattering; denaturing: 1% SDS in TBS, without DTT; both purified.
The target is the same in test [4]. Kind of test: SDS-PAGE; non-reducing, 10% gel, Coomassie stain; disulphide-linked dimer; both purified.
The target is the same in test [5]. Nature of the test: SPR; self-interaction without Ca2+: immobilised and soluble protein treated with 5 mM EDTA or EGTA and dialysed against TBS; running buffer TBS; analyte 5-100 µg/mL; both purified. For orientation: In SPR one partner is held on a chip, and binding of the other changes the refractive index at the surface.

These are yes or no findings as the source states them, for the method shown.

B1: MFAP4_(C34S) (protein, UniProt P55083 22-255)
chain: VSGIRGDALERFSLQQPLDCDDIYAQGYQSDGVYLIYPSGPSVPVPVFCDMTTEGGKWTVFQKRFNGSVSFFRGWNDYKLGFGRADGEYWLGLQNMHLLTLKQKYELRVDLEDFENNTAYAKYADFSISPNAVSAEEDGYTLFVAGFEDGGAGDSLSYHSGQKFSTFDRDQDLFVQNCAALSSGAFWFRSCHFANLNGFYLGGSHLSYANGINWAQWKGFYYSLKRTEMKIRRA
Take B1: the binding result was “no binding” with MFAP4_(C34S) (human) [1]; “no binding (condition: with 50 mM DTT and 1% SDS)” with MFAP4_(C34S) (human) [2]; “no binding (condition: with 1% SDS)” in the test with MFAP4_(C34S) (human) [3]; “no binding (condition: SDS gel, non-reducing)” with MFAP4_(C34S) (human) [4]; “no binding (condition: Ca2+-depleted form)” in the test with MFAP4_(C34S) (human) [5].
